Hit rate of the full screen: of about 330,000 compounds, about 7,700 (2.3%) were called active. The shares of active, inactive and inconclusive entries below differ from those in the screen. Calls follow the shape of the dose curve; as a rule, active = well fitted inhibition curve with a large enough effect; inconclusive = small, poorly fitted or top-dose-only effect, or effect the other way; inactive = flat fitted curve, though single readings scatter. Potencies of inconclusive entries are doubtful fits and often do not repeat.
Assay: qHTS screen for small molecules that inhibit ELG1-dependent DNA repair in human embryonic kidney (HEK293T) cells expressing luciferase-tagged ELG1; also: nearly all actives have a fitted effect of over 55% in size
Settings: HEK293T ELG1-luciferase reporter, luminescence, 16 h, DNA damage induced by 5-fluorouridine; activity change, negative = inhibition: at 46.1 µM (top of the series)
Outline: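 5-Fluorouridine DNA damage + compound/DMSO, 2,000 cells/well, 16 h, 37 °C/5% CO2. ONE-Glo, 30 min RT, luminescence. Readout = decrease in reporter signal.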
% is scaled to controls: 0 for no effect and ±100 for the full control effect; potency is read from the fitted curve at half-maximal effect.

Compound | activity change, negative = inhibition | Potency
Cc1cccc(N(C)S(=O)(=O)c2ccc(-c3cc(C)no3)s2)c1 | inactive: 19.1% | 
CC(C)(C)c1ccc(OCCNCc2ccccc2)cc1 | inactive: -1.74% | 
COc1ccc(OC(=O)c2cnc3n(c2=O)CCS3)cc1 |  | inconclusive: 5.8 µM [activator, full curve]
OCCOCCN1CCN(C2=Nc3ccccc3Sc3ccccc32)CC1 |  | inconclusive: 0.184 µM [inhibitor, single point]
Nc1nn(-c2ccccc2)c(N)c1N=Nc1ccccc1 |  | inconclusive: 2.91 µM [activator, full curve]
CS(=O)(=O)N1CCN(c2ccccc2NC(=O)c2ccc(-c3ccc(Cl)cc3Cl)o2)CC1 |  | inconclusive: 3.66 µM [inhibitor, full curve]
Cc1ccc(S(=O)(=O)N2CCOCC2)cc1NC(=O)CN1CCC(Cc2ccccc2)CC1 |  | inconclusive: 16.4 µM [inhibitor, partial curve, poor fit]
CC[N+](CC)(CC#Cc1ccccc1)CC(=O)c1ccc(Cl)cc1 | inactive: -6.59% | 
Cn1ncc(C#N)c1NC(=O)c1cc(-c2ccccc2Cl)on1 |  | inconclusive: 31.6 µM [activator, single point]
Cc1ccc(COc2cccc(/C=N/NC(=O)c3nnn(-c4nonc4N)c3C)c2)cc1 |  | inconclusive: 8.2 µM [activator, partial curve]
CC(=O)Nc1nnc(COc2ccccc2)s1 |  | inconclusive: 18.3 µM [activator, partial curve]
CCOc1ccc(C=NNC(=O)c2ccc(-n3cnnn3)cc2)cc1 |  | inconclusive: 25.9 µM [inhibitor, single point]
C=CCN(c1ccccc1)S(=O)(=O)c1cccc(C(=O)NCC(c2ccccc2OC)N2CCCC2)c1 (stereo not given) |  | inconclusive: 5.17 µM [inhibitor, single point]
CC(C)(O[C@@H]1O[C@H](CO)[C@@H](O)[C@H](O)[C@H]1O)[C@@H]1CC=C(C(=O)O)CC1 | inactive: 12.4% | 
COc1cccc(CNC(=O)COc2cccc3c2OC(C)(C)C3)c1 | inactive: -10.8% | 
COc1cc(O)c(C(CCN2CCCC2)c2cc(OC)c(OC)c(OC)c2)c(OC)c1 (stereo not given) |  | inconclusive: 13 µM [activator, single point]
Cc1[nH]n(C2=NCCS2)c(=O)c1N=Nc1ccccc1 |  | inconclusive: 4.61 µM [inhibitor, single point]
O=C(c1ccc([N+](=O)[O-])cc1)n1nc(-c2ccccc2)nc1NCc1ccc(F)cc1 |  | inconclusive: 13 µM [activator, partial curve]
Cc1cccnc1NC(=O)c1ccc([N+](=O)[O-])o1 | inactive: 9.03% | 
COc1cc(C(=O)OCC(=O)N2CCN(C(C)=O)CC2)ccc1OCC(C)C | inactive: 8.24% | 
Cc1ccc(NS(=O)(=O)c2cc3c4c(cccc4c2)C(=O)NC3=O)cc1C |  | active: 16.4 µM
COc1ccc(C(C(=O)NC(C)(C)C)N(Cc2cccnc2)C(=O)CCC(=O)Nc2cc(C)on2)cc1 (stereo not given) | inactive: 10.3% | 
CCOC(=O)Cc1nn(Cc2nc(-c3ccc(C)cc3)cs2)c(=O)c2ccccc12 |  | inconclusive: 29.1 µM [inhibitor, single point]
COc1ccc(NS(=O)(=O)c2cccc(C(=O)NNC(=O)c3ccc(Br)o3)c2)cc1 | inactive: -27.8% | 

Six successive compounds already listed, quoted:
Compound | activity change, negative = inhibition | Potency
CC(C)(O[C@@H]1O[C@H](CO)[C@@H](O)[C@H](O)[C@H]1O)[C@@H]1CC=C(C(=O)O)CC1 | inactive: 12.4% | 
COc1cccc(CNC(=O)COc2cccc3c2OC(C)(C)C3)c1 | inactive: -10.8% | 
COc1cc(O)c(C(CCN2CCCC2)c2cc(OC)c(OC)c(OC)c2)c(OC)c1 (stereo not given) |  | inconclusive: 13 µM [activator, single point]
Cc1[nH]n(C2=NCCS2)c(=O)c1N=Nc1ccccc1 |  | inconclusive: 4.61 µM [inhibitor, single point]
O=C(c1ccc([N+](=O)[O-])cc1)n1nc(-c2ccccc2)nc1NCc1ccc(F)cc1 |  | inconclusive: 13 µM [activator, partial curve]
Cc1cccnc1NC(=O)c1ccc([N+](=O)[O-])o1 | inactive: 9.03% | 

More structures.

Compound | activity change, negative = inhibition | Potency
COc1cc(OC)cc(C(=O)NCC(=O)NC(C)CCc2ccccc2)c1 (stereo not given) |  | inconclusive: 29.1 µM [inhibitor, single point]
COc1cccc(C(=O)Nc2nc3ccccc3[nH]2)c1 |  | inconclusive: 0.411 µM [activator, full curve]
CCOC(=O)C1CCN(C(=O)c2ccc3c(c2)NC(=O)/C(=C/c2ccccc2)S3)CC1 | inactive: -10.9% | 
O=C(Nc1ccc2cccnc2c1)c1ccc(Br)cc1 |  | inconclusive: 22.4 µM [activator, single point]
O=C(CNC(=O)c1ccccc1C(=O)O)c1ccccc1 |  | inconclusive: 20.6 µM [activator, partial curve]
CCNC(=O)c1ccc(CSc2nc3ccccc3s2)cc1 | inactive: -0.596% | 
Nc1nc(-c2ccc(Cl)cc2)nn1C(=O)c1ccco1 |  | inconclusive: 18.3 µM [activator, partial curve, poor fit]
Cc1ccc(OCc2ccc(Br)cc2)c([N+](=O)[O-])n1 |  | inconclusive: 11.6 µM [activator, partial curve]
Cc1nc(Oc2ccc(Cl)cc2)c2oc3ccccc3c2n1 | inactive: -11.5% | 
O=C(CCc1ccccc1)Nc1nc2c(F)cc(F)cc2s1 |  | inconclusive: 8.2 µM [activator, partial curve, poor fit]
O=C(C[C@@H]1C/C=C\CCC(=O)OC[C@@H]2CCCN2C1=O)N[C@@H](CO)Cc1ccccc1 |  | inconclusive: 16.4 µM [activator, partial curve, poor fit]
O=C(Cc1ccc(Cl)cc1)Nc1ncc([N+](=O)[O-])s1 |  | inconclusive: 29.1 µM [inhibitor, single point]
CCC(NC(=O)c1cc(COc2ccc(Cl)cc2OC)on1)c1ccncc1 (stereo not given) |  | inconclusive: 20.6 µM [activator, partial curve]
Cn1c(-c2cc3ccc(OC(=O)C(C)(C)C)cc3oc2=O)nc2ccccc21 |  | inconclusive: 11.2 µM [activator, partial curve, poor fit]
COc1ccc(C(=S)Nc2ccc(N(C)C)cc2)cc1 |  | inconclusive: 2.91 µM [activator, full curve]
CC(NC(=O)COC(=O)c1cc(=O)c2ccccc2o1)c1ccccc1 (stereo not given) |  | inconclusive: 18.3 µM [activator, single point]
Cc1ccc(NC(=O)Cn2cnc3ccccc32)cc1C |  | active: 4.61 µM
CC1CCCCC1n1c(=S)[nH]c2ccccc2c1=O (stereo not given) | inactive: 10.7% | 
COc1ccc(C(=O)C2CCCN(C3Cc4ccccc4C3)C2)c(OC)c1 (stereo not given) |  | inconclusive: 4.61 µM [activator, full curve, poor fit]
Cn1c(C=O)c(-c2ccc3c(c2)OCCO3)c2ccccc21 | inactive: 3.45% | 
Cc1cc(C(=O)Cn2nc(C(=O)O)c3ccccc3c2=O)c(C)n1-c1ccccc1 |  | inconclusive: 9.2 µM [activator, partial curve]
COc1ccccc1NC(=O)c1ccccc1NS(C)(=O)=O | inactive: 4.55% | 
Cc1cccc(NC(=O)Nc2ccc(Cl)cc2)n1 |  | inconclusive: 14.6 µM [activator, partial curve, poor fit]
COCC(C)n1c(C)cc(C(=O)COC(=O)c2nn(C)c(=O)c3ccccc23)c1C (stereo not given) |  | inconclusive: 7.3 µM [inhibitor, partial curve]

Compound | activity change, negative = inhibition | Potency
CC(=O)Nc1cccc(Cn2cccn2)c1 |  | inconclusive: 28.2 µM [activator, single point]
Cc1ccc(C(=O)NC(=S)Nc2cccc3nsnc23)cc1 |  | inconclusive: 7.08 µM [inhibitor, partial curve, poor fit]
Cc1nc2ncccn2c1-c1csc(Nc2ccc(O)cc2)n1 |  | inconclusive: 2.59 µM [activator, single point]
CCNC(=O)c1ccccc1NC(=O)c1cccc(S(=O)(=O)N2CCC(C)CC2)c1 |  | inconclusive: 8.2 µM [inhibitor, single point]
O=C(Nc1ccc(Oc2ccc(NC(=O)c3ccco3)c(NC(=O)c3ccco3)c2)cc1)c1ccco1 |  | active: 16.4 µM
Cc1cccc2cn[nH]c12 | inactive: 14.5% | 
CC(C)(C)C1CCc2c(sc(N)c2C(N)=O)C1 (stereo not given) |  | inconclusive: 1.16 µM [inhibitor, single point]
COC(=O)C(C)n1cnc2c(nnn2-c2ccc(OC)cc2)c1=O (stereo not given) |  | inconclusive: 18.4 µM [activator, single point]
Cc1snc(SCC(=O)c2ccc([N+](=O)[O-])cc2)c1C#N |  | inconclusive: 3.26 µM [activator, full curve]
O=C(CCCC1=NS(=O)(=O)c2ccccc2N1)N1CCN(c2ccccc2)CC1 |  | inconclusive: 3.66 µM [inhibitor, partial curve, poor fit]
O=C(COC(=O)C1CCCC1)Nc1ncc(Cl)cc1Cl |  | inconclusive: 9.2 µM [activator, single point]
Cc1ccc(-n2nc3ccc(NC(=O)/C=C/c4ccco4)cc3n2)cc1C |  | inconclusive: 13 µM [activator, partial curve]
COc1ccc(C(=O)c2ccccc2)c(OCC(=O)NC2CC2)c1 |  | inconclusive: 29.1 µM [inhibitor, single point]
O=C(NCCc1c[nH]c2ccccc12)c1ccc(Cl)cc1 |  | inconclusive: 11.2 µM [activator, partial curve, poor fit]
N#Cc1ccccc1NC(=O)COC(=O)c1ccc2c(c1)OCCO2 | inactive: 5.54% | 
O=C(CCc1nnc2ccc(N3CCC4(CC3)OCCO4)nn12)Nc1ccc(F)cc1 | inactive: 6.79% | 
COc1cc(-c2cc(-c3nnco3)c3ccccc3n2)cc(OC)c1OC |  | inconclusive: 29.1 µM [inhibitor, single point]
COc1ccc(N2CCN(C(=O)c3nn(C)c4c3CS(=O)(=O)c3ccccc3-4)CC2)cc1 | inactive: -5.14% | 
Cn1c(CNC(=O)c2ccc3c(c2)OCO3)nnc1SCC(=O)Nc1ccccc1F | inactive: 8.69% | 
Cn1c(N)c(C(=O)c2cc(-c3ccncc3)nc3ccccc23)c(=O)n(C)c1=O |  | inconclusive: 18.3 µM [activator, partial curve]
CCOc1ccc(OCCC(=O)N2CCc3cc(OC)c(OC)cc3C2)cc1 | inactive: -9.44% | 
CCOC(=O)CSc1nnc(-c2ccccc2)c(=O)[nH]1 |  | inconclusive: 20.6 µM [activator, partial curve]
